Laboratory results as given in the supplement of paper PMC12595434, “Development of retinoid nuclear receptor pathway antagonists through targeting aldehyde dehydrogenase 1A3” (iScience, 2025).
This is one part of the list. The data scatter; read single values as rough.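 Tm was set to 64 °C where no melting was found, and many curves are irregular.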

Sequences of proteins named here, by UniProt entry; tags and fusion partners are left off. A change or cut given only in a name is not applied to a line headed by its entry.
UniProt Q9UPY3: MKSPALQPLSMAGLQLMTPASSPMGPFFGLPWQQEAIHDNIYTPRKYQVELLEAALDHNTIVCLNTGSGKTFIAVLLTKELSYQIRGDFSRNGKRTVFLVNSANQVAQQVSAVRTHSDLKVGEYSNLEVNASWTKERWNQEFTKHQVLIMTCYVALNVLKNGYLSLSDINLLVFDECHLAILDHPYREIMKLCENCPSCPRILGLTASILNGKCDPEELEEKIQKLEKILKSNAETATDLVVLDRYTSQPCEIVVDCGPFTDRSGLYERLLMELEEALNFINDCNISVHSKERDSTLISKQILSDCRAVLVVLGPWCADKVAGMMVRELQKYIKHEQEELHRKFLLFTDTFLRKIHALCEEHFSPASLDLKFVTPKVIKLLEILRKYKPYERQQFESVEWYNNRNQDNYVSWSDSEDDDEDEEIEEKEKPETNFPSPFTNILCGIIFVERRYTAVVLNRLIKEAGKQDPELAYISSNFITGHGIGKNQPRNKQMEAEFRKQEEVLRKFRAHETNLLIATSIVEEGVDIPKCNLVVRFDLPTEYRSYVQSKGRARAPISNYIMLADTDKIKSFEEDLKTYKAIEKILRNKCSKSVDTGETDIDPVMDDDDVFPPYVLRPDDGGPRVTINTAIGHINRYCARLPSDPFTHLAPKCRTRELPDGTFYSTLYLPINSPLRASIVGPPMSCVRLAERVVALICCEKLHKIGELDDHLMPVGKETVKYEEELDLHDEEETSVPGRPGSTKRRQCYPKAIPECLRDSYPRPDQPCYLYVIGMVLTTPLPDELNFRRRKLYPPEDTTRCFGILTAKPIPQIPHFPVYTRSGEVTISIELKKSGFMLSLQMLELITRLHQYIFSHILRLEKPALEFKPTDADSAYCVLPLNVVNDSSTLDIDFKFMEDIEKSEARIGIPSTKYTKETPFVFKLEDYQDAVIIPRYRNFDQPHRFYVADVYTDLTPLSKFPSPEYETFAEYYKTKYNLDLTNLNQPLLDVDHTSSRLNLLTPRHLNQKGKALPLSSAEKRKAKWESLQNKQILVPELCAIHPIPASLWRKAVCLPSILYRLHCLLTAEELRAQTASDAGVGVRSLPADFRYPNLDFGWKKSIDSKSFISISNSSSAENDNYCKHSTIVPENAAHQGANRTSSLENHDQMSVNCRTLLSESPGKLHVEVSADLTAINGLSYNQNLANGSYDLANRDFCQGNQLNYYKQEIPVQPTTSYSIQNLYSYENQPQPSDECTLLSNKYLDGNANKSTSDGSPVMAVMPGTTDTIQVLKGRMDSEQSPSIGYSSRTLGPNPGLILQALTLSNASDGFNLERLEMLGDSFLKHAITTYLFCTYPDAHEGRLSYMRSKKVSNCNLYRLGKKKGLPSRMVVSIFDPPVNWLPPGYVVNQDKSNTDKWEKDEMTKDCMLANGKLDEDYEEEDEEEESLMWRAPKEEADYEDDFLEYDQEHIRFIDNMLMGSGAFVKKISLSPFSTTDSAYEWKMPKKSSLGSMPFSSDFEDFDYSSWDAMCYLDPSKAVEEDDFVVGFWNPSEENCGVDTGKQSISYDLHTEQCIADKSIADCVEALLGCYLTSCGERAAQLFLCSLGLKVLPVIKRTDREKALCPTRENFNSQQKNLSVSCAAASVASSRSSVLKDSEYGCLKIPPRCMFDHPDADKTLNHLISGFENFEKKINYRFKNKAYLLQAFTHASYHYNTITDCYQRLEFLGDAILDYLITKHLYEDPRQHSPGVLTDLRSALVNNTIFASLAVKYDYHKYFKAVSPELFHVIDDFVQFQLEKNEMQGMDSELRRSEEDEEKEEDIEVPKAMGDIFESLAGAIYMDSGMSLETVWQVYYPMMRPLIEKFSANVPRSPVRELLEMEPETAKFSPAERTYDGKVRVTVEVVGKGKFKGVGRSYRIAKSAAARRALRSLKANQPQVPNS
UniProt Q9UK58: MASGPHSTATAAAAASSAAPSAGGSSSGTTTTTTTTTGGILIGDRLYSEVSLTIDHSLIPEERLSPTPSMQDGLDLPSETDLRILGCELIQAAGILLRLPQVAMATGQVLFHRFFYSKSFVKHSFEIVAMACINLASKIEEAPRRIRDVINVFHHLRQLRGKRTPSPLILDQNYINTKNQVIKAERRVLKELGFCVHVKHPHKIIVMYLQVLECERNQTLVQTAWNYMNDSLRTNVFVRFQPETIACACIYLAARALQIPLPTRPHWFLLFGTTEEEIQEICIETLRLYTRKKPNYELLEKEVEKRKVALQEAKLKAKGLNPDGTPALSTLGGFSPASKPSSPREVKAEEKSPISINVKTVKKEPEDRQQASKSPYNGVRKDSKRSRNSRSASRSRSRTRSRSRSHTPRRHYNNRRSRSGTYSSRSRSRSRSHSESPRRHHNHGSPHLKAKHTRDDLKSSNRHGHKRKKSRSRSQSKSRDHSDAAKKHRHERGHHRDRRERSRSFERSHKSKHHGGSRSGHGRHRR
UniProt Q9Y281, whole entry: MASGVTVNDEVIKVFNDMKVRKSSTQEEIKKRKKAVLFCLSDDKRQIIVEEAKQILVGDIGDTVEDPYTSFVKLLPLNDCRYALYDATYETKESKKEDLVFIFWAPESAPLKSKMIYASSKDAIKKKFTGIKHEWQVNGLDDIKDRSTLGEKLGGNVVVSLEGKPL
UniProt Q9UIS9: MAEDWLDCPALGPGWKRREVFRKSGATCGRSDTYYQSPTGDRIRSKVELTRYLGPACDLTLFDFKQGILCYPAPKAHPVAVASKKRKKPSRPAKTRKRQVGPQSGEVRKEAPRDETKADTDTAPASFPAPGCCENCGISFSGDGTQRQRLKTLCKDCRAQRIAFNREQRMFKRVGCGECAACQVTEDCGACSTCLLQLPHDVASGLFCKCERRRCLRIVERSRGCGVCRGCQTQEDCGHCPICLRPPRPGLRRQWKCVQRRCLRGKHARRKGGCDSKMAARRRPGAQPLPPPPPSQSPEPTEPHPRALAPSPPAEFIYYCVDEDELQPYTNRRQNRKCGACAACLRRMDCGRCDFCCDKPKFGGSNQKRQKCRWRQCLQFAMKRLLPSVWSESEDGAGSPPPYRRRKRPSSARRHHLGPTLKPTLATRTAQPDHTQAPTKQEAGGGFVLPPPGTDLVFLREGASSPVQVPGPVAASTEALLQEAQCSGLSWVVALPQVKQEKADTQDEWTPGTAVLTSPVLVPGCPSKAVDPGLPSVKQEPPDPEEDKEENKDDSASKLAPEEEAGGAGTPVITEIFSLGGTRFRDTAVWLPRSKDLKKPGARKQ
UniProt Q9ULJ3: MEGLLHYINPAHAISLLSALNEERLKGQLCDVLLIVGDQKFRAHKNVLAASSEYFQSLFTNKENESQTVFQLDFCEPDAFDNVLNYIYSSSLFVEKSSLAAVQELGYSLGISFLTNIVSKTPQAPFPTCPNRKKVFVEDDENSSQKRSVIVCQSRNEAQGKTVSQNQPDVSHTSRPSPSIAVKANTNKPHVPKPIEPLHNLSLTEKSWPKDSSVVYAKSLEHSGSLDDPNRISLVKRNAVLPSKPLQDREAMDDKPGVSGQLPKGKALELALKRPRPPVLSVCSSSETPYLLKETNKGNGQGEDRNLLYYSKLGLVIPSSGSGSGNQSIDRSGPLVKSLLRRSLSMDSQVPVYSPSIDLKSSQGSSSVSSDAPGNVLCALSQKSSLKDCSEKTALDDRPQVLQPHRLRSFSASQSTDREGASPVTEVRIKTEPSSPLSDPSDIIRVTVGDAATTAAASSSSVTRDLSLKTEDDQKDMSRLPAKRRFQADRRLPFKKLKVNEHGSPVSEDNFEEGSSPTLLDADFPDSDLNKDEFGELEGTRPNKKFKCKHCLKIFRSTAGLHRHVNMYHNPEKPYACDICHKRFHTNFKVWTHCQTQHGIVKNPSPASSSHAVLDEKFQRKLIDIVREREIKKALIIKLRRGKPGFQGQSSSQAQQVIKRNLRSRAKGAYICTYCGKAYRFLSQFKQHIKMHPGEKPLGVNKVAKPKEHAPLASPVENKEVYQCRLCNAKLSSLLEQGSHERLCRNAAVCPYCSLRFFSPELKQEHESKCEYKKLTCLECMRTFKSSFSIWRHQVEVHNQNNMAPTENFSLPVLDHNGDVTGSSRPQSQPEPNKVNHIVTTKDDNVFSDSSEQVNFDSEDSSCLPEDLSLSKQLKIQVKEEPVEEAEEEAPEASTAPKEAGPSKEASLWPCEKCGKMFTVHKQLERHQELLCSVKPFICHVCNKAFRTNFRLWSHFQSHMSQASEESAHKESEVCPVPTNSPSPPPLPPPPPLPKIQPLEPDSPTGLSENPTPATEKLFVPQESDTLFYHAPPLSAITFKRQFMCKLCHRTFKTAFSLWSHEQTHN
UniProt Q9UH65: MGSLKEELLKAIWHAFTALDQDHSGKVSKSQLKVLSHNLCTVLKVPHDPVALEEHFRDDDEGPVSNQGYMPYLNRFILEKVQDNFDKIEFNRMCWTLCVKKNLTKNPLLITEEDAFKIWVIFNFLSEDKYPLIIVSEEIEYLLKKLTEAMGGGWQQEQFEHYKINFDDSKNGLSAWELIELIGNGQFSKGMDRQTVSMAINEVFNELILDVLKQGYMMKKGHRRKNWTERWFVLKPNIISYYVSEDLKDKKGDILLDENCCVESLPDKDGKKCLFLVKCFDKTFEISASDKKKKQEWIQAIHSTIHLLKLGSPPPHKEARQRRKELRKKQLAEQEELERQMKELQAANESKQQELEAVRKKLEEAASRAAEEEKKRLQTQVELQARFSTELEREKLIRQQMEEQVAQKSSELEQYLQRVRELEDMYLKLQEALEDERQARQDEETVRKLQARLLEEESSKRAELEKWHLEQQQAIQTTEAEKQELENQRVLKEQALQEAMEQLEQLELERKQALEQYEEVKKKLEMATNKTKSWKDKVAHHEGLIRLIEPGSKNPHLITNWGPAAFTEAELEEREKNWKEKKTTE
UniProt Q9UQ53: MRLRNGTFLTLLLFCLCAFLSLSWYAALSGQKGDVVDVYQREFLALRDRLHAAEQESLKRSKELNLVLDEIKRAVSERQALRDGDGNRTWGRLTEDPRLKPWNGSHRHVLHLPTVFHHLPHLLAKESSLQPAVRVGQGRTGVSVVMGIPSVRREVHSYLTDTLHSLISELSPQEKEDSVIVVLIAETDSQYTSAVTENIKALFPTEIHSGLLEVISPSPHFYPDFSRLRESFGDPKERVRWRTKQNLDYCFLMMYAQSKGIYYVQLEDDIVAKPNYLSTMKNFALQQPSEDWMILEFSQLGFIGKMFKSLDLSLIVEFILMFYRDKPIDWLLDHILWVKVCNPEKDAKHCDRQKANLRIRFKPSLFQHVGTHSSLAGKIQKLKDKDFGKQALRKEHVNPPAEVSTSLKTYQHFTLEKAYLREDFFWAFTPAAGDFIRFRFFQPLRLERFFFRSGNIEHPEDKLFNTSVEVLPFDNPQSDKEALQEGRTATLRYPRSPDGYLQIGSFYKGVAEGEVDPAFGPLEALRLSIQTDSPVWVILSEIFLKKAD
UniProt Q9UII4: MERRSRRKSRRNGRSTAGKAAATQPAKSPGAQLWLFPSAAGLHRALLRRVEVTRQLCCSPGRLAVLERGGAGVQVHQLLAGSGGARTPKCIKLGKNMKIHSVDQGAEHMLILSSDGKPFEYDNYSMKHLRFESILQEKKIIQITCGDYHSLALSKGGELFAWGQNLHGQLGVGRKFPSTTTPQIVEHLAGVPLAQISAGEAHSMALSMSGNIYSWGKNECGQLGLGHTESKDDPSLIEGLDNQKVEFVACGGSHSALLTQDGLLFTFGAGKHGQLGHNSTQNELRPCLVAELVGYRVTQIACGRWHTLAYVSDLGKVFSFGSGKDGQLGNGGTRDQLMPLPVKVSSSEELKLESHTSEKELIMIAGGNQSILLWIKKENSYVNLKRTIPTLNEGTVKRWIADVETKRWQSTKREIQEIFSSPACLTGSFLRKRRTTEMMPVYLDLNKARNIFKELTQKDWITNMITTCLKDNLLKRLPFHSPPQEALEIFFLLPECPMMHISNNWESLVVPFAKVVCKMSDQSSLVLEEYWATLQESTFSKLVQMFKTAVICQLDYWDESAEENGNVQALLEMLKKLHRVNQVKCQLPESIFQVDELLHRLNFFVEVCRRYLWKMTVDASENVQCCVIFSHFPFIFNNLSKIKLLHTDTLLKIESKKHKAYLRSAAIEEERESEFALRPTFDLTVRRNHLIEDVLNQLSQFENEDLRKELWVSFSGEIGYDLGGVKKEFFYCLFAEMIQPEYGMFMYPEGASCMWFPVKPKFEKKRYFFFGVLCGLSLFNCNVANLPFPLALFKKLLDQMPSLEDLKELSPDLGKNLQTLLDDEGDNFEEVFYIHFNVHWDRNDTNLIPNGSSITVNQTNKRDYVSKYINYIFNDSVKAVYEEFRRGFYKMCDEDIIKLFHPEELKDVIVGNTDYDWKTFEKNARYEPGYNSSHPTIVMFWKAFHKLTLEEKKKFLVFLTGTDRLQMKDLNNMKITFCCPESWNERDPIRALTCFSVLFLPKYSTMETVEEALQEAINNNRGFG
UniProt Q9UL33, whole entry: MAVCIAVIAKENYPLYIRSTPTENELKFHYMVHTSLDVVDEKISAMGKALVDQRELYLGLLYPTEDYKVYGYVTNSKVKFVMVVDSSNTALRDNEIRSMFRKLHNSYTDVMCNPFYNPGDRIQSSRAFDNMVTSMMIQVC

Compound: CCc1cnccc1C(=O)Nc1cc2c(cc1F)NC(=O)CC2
Experiment: melting temperature shift (DMSO Tm minus MBE1-treated Tm) in cellular thermal proteome profiling; higher = less thermal stabilization by MBE1 (negative = stabilized by MBE1)
Conditions: A375

Target	melting temperature shift (MBE1 concentration: 100 nM)	melting temperature shift (MBE1 concentration: 1 uM)
PSMD13 (UniProt Q9UNM6)	-0.725 °C	0.446 °C
SRRM2 (UniProt Q9UQ35)	0.055 °C	0.843 °C
MRPS33 (UniProt Q9Y291)	-0.0366 °C	0.0916 °C
PFDN2 (UniProt Q9UHV9)	-3.39 °C	-2.71 °C
UniProt Q9Y2H1	0.476 °C	-0.183 °C
FBXO4 (UniProt Q9UKT5)	-0.317 °C	0.659 °C
PPP6R1 (UniProt Q9UPN7)	-0.623 °C	1.02 °C
RAB22A (UniProt Q9UL26)	-1.07 °C	1.16 °C
DICER1 (UniProt Q9UPY3)	1.29 °C	0.501 °C
GINS2 (UniProt Q9Y248)	0.946 °C	0.556 °C
UniProt Q9UK61	-0.895 °C	-0.263 °C
ABCF2 (UniProt Q9UG63)	-0.0366 °C	0.311 °C
USP25 (UniProt Q9UHP3)	1.01 °C	0.806 °C
C19ORF53 (UniProt Q9UNZ5)	-1.88 °C	-2.47 °C
UniProt Q9UK58	0.287 °C	-0.0672 °C
UniProt Q9UNK9	-3.71 °C	-4.98 °C
PRELID1 (UniProt Q9Y255)	-0.646 °C	0.446 °C
CFL2 (UniProt Q9Y281)	-0.61 °C	0.757 °C
UniProt Q9UKU9	-0.899 °C	0.181 °C
UniProt Q9UHD8	-0.516 °C	0.00671 °C
TNIK (UniProt Q9UKE5)	-1.14 °C	0.318 °C
UniProt Q9UIS9	-0.353 °C	-1.23 °C
EXOG (UniProt Q9Y2C4)	-1.32 °C	0.542 °C
UniProt Q9UQ16	1.29 °C	0.33 °C

Target	melting temperature shift (MBE1 concentration: 100 nM)	melting temperature shift (MBE1 concentration: 1 uM)
UniProt Q9UL03	-0.983 °C	-0.395 °C
TTF2 (UniProt Q9UNY4)	-0.565 °C	-0.754 °C
PLAA (UniProt Q9Y263)	-0.442 °C	-0.565 °C
UBQLN2 (UniProt Q9UHD9)	-1.71 °C	-2.86 °C
UniProt Q9ULJ8	0.977 °C	0.177 °C
TBC1D24 (UniProt Q9ULP9)	0.434 °C	0.733 °C
PRPF19 (UniProt Q9UMS4)	-0.855 °C	-1.09 °C
DUSP12 (UniProt Q9UNI6)	-0.11 °C	0.397 °C
UniProt Q9UHF7	0.989 °C	0.983 °C
RUVBL1 (UniProt Q9Y265)	-1.07 °C	-1.68 °C
PITPNC1 (UniProt Q9UKF7)	0.324 °C	-0.464 °C
WDR3 (UniProt Q9UNX4)	0.91 °C	0.336 °C
UniProt Q9ULG1	-0.812 °C	-1.51 °C
ISY1 (UniProt Q9ULR0)	-0.384 °C	-0.468 °C
FBXO2 (UniProt Q9UK22)	-0.0855 °C	1.61 °C
SAP30BP (UniProt Q9UHR5)	-1.1 °C	-0.822 °C
ZC3H7B (UniProt Q9UGR2)	-0.0961 °C	0.218 °C
STUB1 (UniProt Q9UNE7)	-0.448 °C	-0.0384 °C
ANAPC2 (UniProt Q9UJX6)	0.208 °C	-0.055 °C
NFU1 (UniProt Q9UMS0)	-1.02 °C	-0.629 °C
FBXW11 (UniProt Q9UKB1)	0.867 °C	4.26 °C
CPSF3 (UniProt Q9UKF6)	-0.0733 °C	-0.724 °C
CCPG1 (UniProt Q9ULG6)	-0.812 °C	0.107 °C
CNOT6 (UniProt Q9ULM6)	-0.0527 °C	-0.48 °C

Two entries from above in a different format:
UniProt Q9UQ16
  melting temperature shift (MBE1 concentration: 100 nM): 1.29 °C; melting temperature shift (MBE1 concentration: 1 uM): 0.33 °C
PLAA (UniProt Q9Y263)
  melting temperature shift (MBE1 concentration: 100 nM): -0.442 °C; melting temperature shift (MBE1 concentration: 1 uM): -0.565 °C

Following part

Target	melting temperature shift (MBE1 concentration: 100 nM)	melting temperature shift (MBE1 concentration: 1 uM)
UniProt Q9ULJ3	-0.14 °C	0.835 °C
UniProt Q9UHV7	1.39 °C	0.214 °C
UniProt Q9UH62	0.353 °C	0 °C
COPS3 (UniProt Q9UNS2)	-1.64 °C	-0.449 °C
BAG5 (UniProt Q9UL15)	0.314 °C	0.0244 °C
ASF1A (UniProt Q9Y294)	0.519 °C	1.14 °C
PTBP2 (UniProt Q9UKA9)	-0.244 °C	-0.147 °C
UniProt Q9Y2I7	0.165 °C	0.202 °C
DRG1 (UniProt Q9Y295)	-1.1 °C	0.53 °C
NOB1 (UniProt Q9ULX3)	-0.103 °C	0.0916 °C
SNX6 (UniProt Q9UNH7)	-0.11 °C	0.721 °C
RCOR1 (UniProt Q9UKL0)	-1.37 °C	-0.752 °C
DNAJC16 (UniProt Q9Y2G8)	0.837 °C	0.305 °C
NIP7 (UniProt Q9Y221)	-0.744 °C	0.141 °C
UniProt Q9UM19	-0.288 °C	-0.777 °C
MAD2L2 (UniProt Q9UI95)	-1.08 °C	-2.06 °C
USP24 (UniProt Q9UPU5)	0.586 °C	-0.14 °C
UniProt Q9UJ68	-0.446 °C	-0.16 °C
AKT3 (UniProt Q9Y243)	-0.416 °C	-0.644 °C
PARP2 (UniProt Q9UGN5)	-0.538 °C	-0.327 °C
UniProt Q9UMR2	0.0855 °C	0.244 °C
HOOK1 (UniProt Q9UJC3)	0.458 °C	0.0305 °C
UniProt Q9Y2D2	-0.299 °C	-2.12 °C
SWAP70 (UniProt Q9UH65)	-0.154 °C	-0.207 °C

Target	melting temperature shift (MBE1 concentration: 100 nM)	melting temperature shift (MBE1 concentration: 1 uM)
AKAP11 (UniProt Q9UKA4)	1.28 °C	-0.0794 °C
SEC63 (UniProt Q9UGP8)	-0.282 °C	0.459 °C
UniProt Q9UJT0	-0.556 °C	0.275 °C
NCKAP1 (UniProt Q9Y2A7)	0.464 °C	0.812 °C
LIMA1 (UniProt Q9UHB6)	-4.52 °C	-2.38 °C
MGAT4B (UniProt Q9UQ53)	-1.03 °C	-0.55 °C
FBXO3 (UniProt Q9UK99)	-0.778 °C	0.782 °C
PISD (UniProt Q9UG56)	-1.22 °C	-1.11 °C
IPO11 (UniProt Q9UI26)	0.0794 °C	0.629 °C
PCYOX1 (UniProt Q9UHG3)	-1.58 °C	-1.06 °C
AP4E1 (UniProt Q9UPM8)	0.146 °C	0.202 °C
TBC1D2B (UniProt Q9UPU7)	0.103 °C	-0.677 °C
WARS2 (UniProt Q9UGM6)	-0.988 °C	-0.851 °C
MINPP1 (UniProt Q9UNW1)	-1.25 °C	0.0122 °C
TIMELESS (UniProt Q9UNS1)	-0.0384 °C	-0.282 °C
MRTO4 (UniProt Q9UKD2)	-0.863 °C	-1.11 °C
MAGED2 (UniProt Q9UNF1)	-1.03 °C	-0.429 °C
UniProt Q9UGH3	-1.41 °C	-2.24 °C
GGA2 (UniProt Q9UJY4)	-1.48 °C	-1.43 °C
VPS4A (UniProt Q9UN37)	0.299 °C	-0.293 °C
UniProt Q9ULL5	0.0192 °C	-0.448 °C
CIZ1 (UniProt Q9ULV3)	-0.11 °C	1.03 °C
FARSA (UniProt Q9Y285)	0.586 °C	0.391 °C
NENF (UniProt Q9UMX5)	0 °C	-4.12 °C

Target	melting temperature shift (MBE1 concentration: 100 nM)	melting temperature shift (MBE1 concentration: 1 uM)
MCTS1 (UniProt Q9ULC4)	-0.617 °C	-1.53 °C
MAN1B1 (UniProt Q9UKM7)	1.37 °C	0.739 °C
HECTD1 (UniProt Q9ULT8)	0.611 °C	0.0855 °C
STOML2 (UniProt Q9UJZ1)	-0.914 °C	-1.89 °C
UniProt Q9ULW3	1.54 °C	0.715 °C
UniProt Q9UN36	-0.55 °C	-0.754 °C
SUN2 (UniProt Q9UH99)	-0.732 °C	0.702 °C
NDUFA12 (UniProt Q9UI09)	-0.55 °C	-0.507 °C
CDC23 (UniProt Q9UJX2)	0.58 °C	0.238 °C
CEP131 (UniProt Q9UPN4)	-1.56 °C	-0.855 °C
ACIN1 (UniProt Q9UKV3)	-0.503 °C	0.778 °C
UniProt Q9UGT4	-4.52 °C	-4.07 °C
HPS5 (UniProt Q9UPZ3)	-0.747 °C	0.739 °C
G3BP2 (UniProt Q9UN86)	0.446 °C	0.519 °C
DDX20 (UniProt Q9UHI6)	-0.783 °C	-0.21 °C
PLCL2 (UniProt Q9UPR0)	0.281 °C	-0.586 °C
TRIM33 (UniProt Q9UPN9)	-0.404 °C	-0.365 °C
MED23 (UniProt Q9ULK4)	-0.496 °C	0.666 °C
CHORDC1 (UniProt Q9UHD1)	0.302 °C	0.33 °C
PIN4 (UniProt Q9Y237)	-0.912 °C	-0.657 °C
HERC5 (UniProt Q9UII4)	-0.36 °C	-0.708 °C
TRAPPC2L (UniProt Q9UL33)	-0.0366 °C	-0.171 °C
NDRG3 (UniProt Q9UGV2)	-0.402 °C	-0.255 °C
ERGIC3 (UniProt Q9Y282)	-1.64 °C	2.54 °C
